Measurements reported in PubChem BioAssay AID1224826 (NIAID, 2016).

- Purpose: 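Genes that change LPS-induced Tnf promoter activity in mouse macrophages when knocked down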 (primary screen)
- Cell system: RAW264.7 G9 macrophages from mouse bearing reporters for p65 (GFP) and the Tnf promoter (mCherry)
- Reagents: siRNA pool against mouse genes, 100 nM
- Duration: 16 h of LPS stimulation, after 2 days of siRNA transfection
- Treatment: bacterial lipopolysaccharide (Salmonella minnesota R595), 10 ng/ml
- Measured: 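Nuclear mCherry signal of the Tnf promoter reporter measured by imaging after background removal, scaled to each plate median and turned into robust z-scores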
- Direction: Tnf reporter robust z-score: higher = stronger Tnf promoter reporter signal after LPS; Tnf reporter intensity: higher = stronger Tnf promoter reporter signal
- Active means: 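Called active when robust z-score is at most -1.3, matching the median of the Tlr4 knock-down control, or over 3; control wells and wells with under 50 cells never active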
- Calls: active = Tnf reporter clearly lowered or raised; inactive = no clear change in Tnf reporter
Here is one part, drawn at random, of about 17,000 deposited reagents. In the full data, about 1,110 (6.6%) got an active call. 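Active means lowered or raised reporter signal; replicate intensities are raw and not normalised per plate.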 Further read-outs or replicates are left out here. No sequences are given here.

Gene | Tnf reporter robust z-score | fewer than 50 cells in well | Tnf reporter intensity, replicate 1 | outcome
Sgpp1 | 0.46 | enough cells in well | 375 | inactive
Nrip2 | -0.32 | enough cells in well | 202 | inactive
Mrnip | – | fewer than 50 cells per well; well left out of calls | 185 | inactive
Pcdha1 | 2.17 | enough cells in well | 285 | inactive
Fbf1 | -0.76 | enough cells in well | 222 | inactive
Cadm3 | -0.57 | enough cells in well | 163 | inactive
Rsph6a | – | fewer than 50 cells per well; well left out of calls | 90.7 | inactive
Cyp4f14 | -0.58 | enough cells in well | 122 | inactive
Serpinb9c | 1 | enough cells in well | 178 | inactive
Clip1 | 0.06 | enough cells in well | 324 | inactive
Cd99l2 | -1.05 | enough cells in well | 166 | inactive
Psg16 | -0.54 | enough cells in well | 101 | inactive
Svs4 | -0.59 | enough cells in well | 87.6 | inactive
V1ra8 | 0.15 | enough cells in well | 117 | inactive
Copg2 | 0.38 | enough cells in well | 211 | inactive
Ipo13 | -1.41 | enough cells in well | 101 | active
Bcap31 | – | fewer than 50 cells per well; well left out of calls | 31.9 | inactive
C5ar1 | -0.87 | enough cells in well | 122 | inactive
Gpsm1 | 0.03 | enough cells in well | 293 | inactive
Ehhadh | 0.25 | enough cells in well | 263 | inactive

Reprinted from the listing (6 entries):
Gene | Tnf reporter robust z-score | fewer than 50 cells in well | Tnf reporter intensity, replicate 1 | outcome
Cyp4f14 | -0.58 | enough cells in well | 122 | inactive
Serpinb9c | 1 | enough cells in well | 178 | inactive
Clip1 | 0.06 | enough cells in well | 324 | inactive
Cd99l2 | -1.05 | enough cells in well | 166 | inactive
Psg16 | -0.54 | enough cells in well | 101 | inactive
Svs4 | -0.59 | enough cells in well | 87.6 | inactive

The results go on:
Gene | Tnf reporter robust z-score | fewer than 50 cells in well | Tnf reporter intensity, replicate 1 | outcome
Pdrg1 | – | fewer than 50 cells per well; well left out of calls | 213 | inactive
Galntl6 | 0.61 | enough cells in well | 195 | inactive
Frmd8 | – | fewer than 50 cells per well; well left out of calls | 185 | inactive
Ces1d | -0.59 | enough cells in well | 129 | inactive
Or6c206 | – | fewer than 50 cells per well; well left out of calls | 139 | inactive
A730049H05Rik | -0.85 | enough cells in well | 133 | inactive
Pxdc1 | 0.7 | enough cells in well | 354 | inactive
Tubgcp5 | 0.16 | enough cells in well | 111 | inactive
Ccdc28b | 1.49 | enough cells in well | 317 | inactive
Or4c120 | 0.7 | enough cells in well | 212 | inactive
Dlec1 | 2.5 | enough cells in well | 432 | inactive
B3galt1 | 1.13 | enough cells in well | 231 | inactive
Bbs7 | 1.32 | enough cells in well | 205 | inactive
Adarb2 | -0.65 | enough cells in well | 225 | inactive
Akt1s1 | -0.8 | enough cells in well | 169 | inactive
Sec16a | 0.7 | enough cells in well | 212 | inactive
Borcs5 | 0.81 | enough cells in well | 233 | inactive
Etl4 | 1.92 | enough cells in well | 238 | inactive
Cox4i2 | -0.84 | enough cells in well | 132 | inactive
Cyp2c55 | 0.57 | enough cells in well | 262 | inactive
